What was measured:
in vitro [1] = details: human, CC50 HLT
in vitro [2] = details: African green monkey, CC50 Vero E6

For Cc1cc(NS(=O)(=O)c2ccc(N)cc2)no1 [Sulfamethoxazole], the CC50 (in vitro [1]) was > 100 µM and the CC50 (in vitro [2]) was > 100 µM.
